From patent publication US20210095322A1, “HIGH-PURITY STEVIOL GLYCOSIDES” (PureCircle USA Inc., priority 2018, published 2021)
At least one structure is not confirmed: it was looked up by name or label, or the drawing left a doubt.

Test: Solubility characteristics and solution stability in water
Format: physicochemical
Experimental: Solubility characteristics were measured as follows. Prepare the following solutions in water and stir at 700 rpm for each. Add heat if necessary at 2 minutes and 30 seconds of stirring. Using a stopwatch, determine how long it takes all powder to dissolve completely and record the temperature at which it dissolves. The following table summarizes the solubility characteristics of Rebaudiosides D, M, and AM.

SMILES: C=C1C[C@@]23CC[C@H]4[C@@](C)(CCC[C@@]4(C)C(=O)O[C@@H]4O[C@H](CO)[C@@H](O)[C@H](O)[C@H]4O[C@@H]4O[C@H](CO)[C@@H](O)[C@H](O)[C@H]4O)[C@@H]2CC[C@]1(O[C@@H]1O[C@H](CO)[C@@H](O)[C@H](O[C@@H]2O[C@H](CO)[C@@H](O)[C@H](O)[C@H]2O)[C@H]1O[C@@H]1O[C@H](CO)[C@@H](O)[C@H](O)[C@H]1O)C3 [Reb D, rebaudioside D]
- Dissolution in water (Heated), time (Test Conc. 0.05%, stirred 700 rpm, heat added at 2 min 30 sec): 8 min 30 sec
- Dissolution in water (Heated), time (Test Conc. 0.1%): 15 min 4 sec
- Dissolution in water (Heated), time (Test Conc. 0.3%): 20 min 27
